# Experimental data: paper PMC12516185
# Results are given in words; binding and its absence hold for the method and conditions named. Some binding calls cover weakened binding; strength is not graded here. Tags and fused reporters may be left off the sequences shown.
# Legend:
# [1] = target: maize isoamylase1 (ISA1), mature protein from residue 50, GAL4 fusion (maize (Zea mays L.)) (UniProt O22637); assay: two-hybrid; Matchmaker Gold yeast two-hybrid; GAL4-AD fusions (pGADT7, strain Y187) mated with GAL4-BD fusions (pGBKT7, strain Y2HGold); diploids plated on relaxed (-Leu, -Trp, -His) and stringent (-Leu, -Trp, -His, -Ade, +AbA) plates; grown 2 d at 30 C
# [2] = target: Zea mays pullulanase1 (ZPU1), from residue 80, GAL4 fusion (maize (Zea mays L.)) (UniProt O81638); assay: as above
binding [1],binding [2],Binder
binds,,"maize isoamylase1 (ISA1), mature protein from residue 50, GAL4 fusion (enzyme, UniProt O22637 50-789) VAEAVQAEEDDDDDDEEVAEERFALGGACRVLAGMPAPLGATALRGGVNFAVYSSGASAASLCLFAPGDLKADRVTEEVPLDPLLNRTGNVWHVFIHGDQLHGMLYGYRFDGVFAPERGQYYDVSNVVVDPYAKAVVSRGEYGVPAPGGSCWPQMAGMIPLPYNKFDWQGDLPLGYHQKDLVIYEMHLRGFTKHNSSKTKHPGTYIGAVSKLDHLKELGVNCIELMPCHEFNELEYFSSSSKMNFWGYSTINFFSPMARYSSSGIRDSGCGAINEFKAFVREAHKRGIEVIMDVVFNHTAEGNEKGPILSFRGIDNSTYYMLAPKGEFYNYSGCGNTFNCNHPVVREFIVDCLRYWVTEMHVDGFRFDLASILTRGCSLWDPVNVYGSPMEGDMITTGTPLVAPPLIDMISNDPILGNVKLIAEAWDAGGLYQVGQFPHWNVWSEWNGKYRDTVRQFIKGTDGFAGAFAECLCGSPQLYQAGGRKPWHSINFVCAHDGFTLADLVTYNSKYNLSNGEDNRDGENHNLSWNCGEEGEFASLSVRRLRKRQMRNFFVCLMVSQGVPMFYMGDEYGHTKGGNNNTYCHDHYVNYFRWDKKEEQSSDLYRFCRLMTKFRKECESLGLEDFPTSERLKWHGHQPGKPDWSEASRFVAFTMKDETKGEIYVAFNTSHLPVVVGLPERSGFRWEPVVDTGKEAPYDFLTDGLPDRAVTVYQFSHFLNSNLYPMLSYSSIILVLRPDV"
,no binding,"Zea mays pullulanase1 (ZPU1), from residue 80, GAL4 fusion (enzyme, UniProt O81638 80-962) AQGFLLDARAYWVTKSLIAWNISDQKTSLFLYASRNATMCMSSQDMKGYDSKVELQPENDGLPSSVTQKFPFISSYRAFRIPSSVDVATLVKCQLAVASFDAHGNRQDVTGLQLPGVLDDMFAYTGPLGTIFSEEAVSMYLWAPTAQDVSVSFYDGPAGPLLETVQLNELNGVWSVTGPRNWENRYYLYEVTVYHQTTGNIEKCLAADPYARGLSANSTRTWLVDINNETLKPLAWDGLAAEKPRLDSFSDISIYELHIRDFSAHDSTVDCPFRGGFCAFTFQDSVGIEHLKKLSDAGLTHVHLLPSFQFGGVDDIKSNWKCVDEIELSKLPPGSDLQQAAIVAIQEEDPYNWGYNPVVWGVPKGSYASNPDGPSRIIEYRLMVQALNRLGLRVVMDVVYNHLYSSGPFAITSVLDKIVPGYYLRRDSNGQTENSAAVNNTASEHFMVDRLIVDDLLNWAVNYKVDGFRFDLMGHIMKKTMIRAKSALQSLTIDEHGVDGSKIYLYGEGWNFGEVAENQRGINGSQLNMSGTGIGSFNDRIRDAINGGSPFGNPLQQGFSTGLFLEPNGFYQGNETETRLTLATYADHIQIGLAGNLKDYVVISHTGEARKGSEIRTFDGSPVGYASSPIETINYASAHDNETLFDIISLKTPMDLSIDERCRINHLSTSMIALSQGIPFFHAGDEILRSKSLDRDSYDSGDWFNKIDFTYETNNWGVGLPPREKNEGSWPLMKPRLENPSFKPAKHDIIAALDKFIDILKIRYSSPLFRLTTASDIVQRVHFHNTGPSLVPGVIVMSIEDARNDRHDMAQIDETFSCVVTVFNVCPYEVSIEIPDLASLRLQLHPVQVNSSDALARQSAYDTATGRFTVPKRTAAVFVEPRC"
